Measured values as given in the supplement of paper PMC6078165.

Key:
Test in all cases: relative JC-1 red fluorescence (viability) vs pre-drug, monoculture (fraction); higher = more viable cancer cells
Settings in all cases: coculture fibroblast: none (monoculture)
[1] = system: BT20
Method: (§1)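 JC-1 labelled TNBC cells grown in monoculture (density kept equal with unlabelled cancer cells) in 384-well plates in FluoroBrite medium, treated with one of 42 anticancer drugs at 0.1, 1, 10 or 100 uM. JC-1 red fluorescence (mitochondrial integrity, surrogate of apoptotic death) was read by plate reader every 8 h for 72 h. Values are normalised to each well's pre-drug value, with background from alamethicin. The stock of one drug was tenfold lower, so its dose labels may be too high. Monoculture values are repeated alongside each fibroblast plate and are averaged here.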

[2] = system: HCC1143
Method: as §1

[3] = system: Hs578T
Method: as §1

[4] = system: MDAMB468
Method: as §1

CC(=O)O[C@@]12CO[C@@H]1C[C@H](O)[C@@]1(C)C(=O)[C@H](O)C3=C(C)[C@@H](OC(=O)[C@H](O)[C@@H](NC(=O)OC(C)(C)C)c4ccccc4)C[C@@](O)([C@@H](OC(=O)c4ccccc4)[C@H]21)C3(C)C [Docetaxel]
relative JC-1 red fluorescence
Settings	8 h	16 h	24 h	32 h	40 h	48 h	56 h	64 h	72 h
[1], 0.1 µM	0.971	0.867	0.765	0.657	0.585	0.53	0.487	0.454	0.432
[1], 1 µM	0.93432	0.8747	0.788	0.709	0.654	0.613	0.568	0.561	0.542
[1], 10 µM	0.955	0.841	0.806	0.735	0.682	0.6481	0.613	0.592	0.578
[1], 100 µM	0.9236	0.8649	0.801	0.719	0.682	0.658	0.629	0.617	0.607
[2], 0.1 µM	0.9193	0.796	0.7199	0.6405	0.59737	0.5904	0.583	0.589	0.595
[2], 1 µM	0.8839	0.818	0.703	0.624	0.578	0.532	0.509	0.508	0.501
[2], 10 µM	0.901	0.811	0.713	0.61	0.55	0.523	0.4934	0.478	0.473
[2], 100 µM	0.659	0.564	0.563	0.576	0.589	0.609	0.614	0.628	0.641
[3], 0.1 µM	0.8826	0.719	0.621	0.551	0.501	0.49	0.462	0.467	0.461
[3], 1 µM	0.846	0.744	0.6858	0.607	0.547	0.52	0.497	0.507	0.509
[3], 10 µM	0.9087	0.763	0.7373	0.665	0.6108	0.5888	0.55	0.537	0.53
[3], 100 µM	0.805	0.699	0.6	0.543	0.521	0.492	0.468	0.461	0.446
[4], 0.1 µM	0.912	0.8009	0.721	0.651	0.589	0.57	0.531	0.511	0.505
[4], 1 µM	0.893	0.829	0.783	0.69	0.65	0.607	0.572	0.532	0.517
[4], 10 µM	0.92	0.844	0.836	0.763	0.722	0.705	0.658	0.641	0.626
[4], 100 µM	0.8645	0.746	0.6854	0.583	0.558	0.547	0.523	0.504	0.503

The reference is the same well before dosing, and untreated signal decays as well.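 Cells used are triple-negative breast cancer lines, either basal-like or mesenchymal-like, grown in the absence of fibroblasts. Lower red signal means mitochondrial integrity is lost, a surrogate for apoptosis.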
